According to the supplement of paper PMC12889115:
The list shows a part of the results. These are raw signals, not scaled to a control.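 In the initial screen, polymyxin B was used at a concentration that permeabilizes Salmonella's outer membrane but not its inner membrane. Maximum growth was set by DMSO wells with or without polymyxin B. Since plates varied, data were ranked per plate, and compounds giving the lowest OD600 advanced as hits.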

Tested on: Salmonella enterica serovar Typhimurium SL1344
Experiment: bacterial growth OD600 after 18 h with compound and polymyxin B; higher = more bacterial growth (less inhibition)
Settings: 50 µM, Mueller-Hinton broth

| Structure (SMILES) | bacterial growth OD600 (polymyxin B 0.75 µg/mL) | bacterial growth OD600 (polymyxin B 1 µg/mL) |
| --- | --- | --- |
| c1ccc(CCCc2noc(-c3ccc(NCC4COCCO4)nc3)n2)cc1 (stereo unspecified) | 0.499 | – |
| CCn1cc(CNC2CCCc3nc(-c4cccnc4)ncc32)c(C)n1 (stereo unspecified) | – | 0.797 |
| COCc1ccc(C(=O)NCc2c(C)ncc3c2CCN(C(=O)c2cccc(-n4cccn4)c2)C3)o1 | 0.879 | – |
| CN(Cc1cnccn1)Cc1cn(Cc2ccccc2)nc1-c1ccc2c(c1)OCO2 | – | 0.539 |
| CCOC(=O)C1(Cc2ccccc2F)CCCN(C(=O)c2ccc(OC)nc2OC)C1 (stereo unspecified) | – | 0.776 |
| COCCN1CC(C(=O)NCc2ccc3sccc3c2)CCC1=O (stereo unspecified) | – | 0.766 |
| COCCN1C(=O)CC(CC(=O)N(C)Cc2cccc3ccccc23)(c2ccccc2F)C1=O (stereo unspecified) | 0.005 | – |
| CCOC(=O)C1(CCCc2ccccc2)CCN(C(=O)C2CCOC(C)(C)C2)CC1 (stereo unspecified) | – | 0.756 |
| CCOC(=O)C1(Cc2ccccc2C(F)(F)F)CCN(C(=O)C2CC23CCC3)CC1 (stereo unspecified) | – | 0.723 |
| NC(=O)C1(C(=O)N2CCCC(CCc3cccc(F)c3)C2)CC1 (stereo unspecified) | 0.802 | – |
| COc1ccc2ccc(OCc3nc(C(=O)NCC(C)C)co3)cc2c1 | – | 0.672 |
| CC(C)CC(=O)Nc1ccnn1C1CCN(Cc2cccc3cccnc23)CC1 | 0.847 | – |
| COc1ccc2c(c1)OC(C)CN(Cc1cc(OC)c3c(c1)OCO3)C2 (stereo unspecified) | 0.711 | – |
| c1ccc(-c2n[nH]c3c2CN(Cc2ccc4c(c2)CCO4)CC3)cc1 | 0.765 | – |
| CC(CNC(=O)c1cn(Cc2ccccc2F)nn1)Oc1cccnc1 (stereo unspecified) | – | 0.969 |
| Cc1cccc(CN2CCCC3(CCN(S(=O)(=O)C(C)C)C3)C2=O)c1 (stereo unspecified) | – | 0.881 |

| Structure (SMILES) | bacterial growth OD600 (polymyxin B 0.75 µg/mL) | bacterial growth OD600 (polymyxin B 1 µg/mL) |
| --- | --- | --- |
| CN(Cc1ccccc1)C(=O)CCC1CCN(C(=O)CCN2CCCCO2)CC1 | – | 0.93 |
| CCOC(=O)CN(C)Cc1cn(-c2ccccc2)nc1-c1cccc(OC)c1 | – | 0.79 |
| Cc1noc(C)c1CC(=O)NC1CC(=O)N(Cc2cccc3ccccc23)C1 (stereo unspecified) | – | 0.923 |
| CC(=O)c1ccc(C(=O)N2CCc3[nH]nc(-c4ccccc4)c3C2)s1 | 0.579 | – |
| CCCCNC(=O)c1cn(C2CCCCC2)cc(C(=O)N(C)CCc2ccccn2)c1=O | 0.783 | – |
| Cc1ccc2nccc(C(=O)N3CCCC(CO)(CCOc4ccccc4)C3)c2c1 (stereo unspecified) | – | 1.14 |
| O=C(NC1CCC1)C1CCCN(C2CCN(C3Cc4ccccc4C3)CC2)C1 (stereo unspecified) | 0.877 | – |
| Cc1ccsc1C(=O)NC1CCCc2nc(N3CCC(CO)CC3)ncc21 (stereo unspecified) | 0.816 | – |
| Cc1ccc(NC2CCCN(C(=O)c3n[nH]c4ccccc34)C2)cc1C (stereo unspecified) | – | 0.687 |
| CN(C(=O)C1CC1)C(Cc1ccc(F)cc1F)C1CCN(C(=O)/C=C/c2ccccc2)CC1 (stereo unspecified) | 0.006 | – |
| COCCn1c(-c2ccccn2)nc2cc(NC(C)=O)cc(C(=O)N(Cc3ccccc3)CC3CC3)c21 | 0.742 | – |
| O=C(c1cccs1)C1CCCN(C(=O)COc2ccc(N3CCN(c4ccccn4)CC3)nn2)C1 (stereo unspecified) | 0.768 | – |
| CC(=O)c1cccc(CN2CCC(CCC(=O)N3CCN(c4ccccc4)CC3)CC2)c1 | – | 0.889 |
| CCCCn1c(CN(C)CCc2ccc(OC)c(OC)c2)cnc1S(=O)(=O)CC | – | 1.08 |
| Cc1cccc(C(=O)N2CCCC(C(=O)c3ccc(-c4ccccc4)cc3)C2)n1 (stereo unspecified) | – | 0.006 |

An excerpt from the list above, as a working copy:

| Structure (SMILES) | bacterial growth OD600 (polymyxin B 0.75 µg/mL) | bacterial growth OD600 (polymyxin B 1 µg/mL) |
| --- | --- | --- |
| CCCCNC(=O)c1cn(C2CCCCC2)cc(C(=O)N(C)CCc2ccccn2)c1=O | 0.783 | – |
| Cc1ccc2nccc(C(=O)N3CCCC(CO)(CCOc4ccccc4)C3)c2c1 (stereo unspecified) | – | 1.14 |
